Values from PubChem BioAssay AID1508588 (Peter MacCallum Cancer Centre, 2020)
Shown is a random part of about 18,000 deposited reagents. In the full data, 790 (4.4%) are marked active. 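Calls rest on a combination of fold-change classes in drug and vehicle arms, not all shown here.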 Entries without a mark were called inactive.

- Purpose: 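Knock-downs boosting vemurafenib effects on melanoma cell growth or lactate release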 (primary screen)
- System: human WM266.4 melanoma cells (BRAF V600 mutant)
- Reagent: siRNA pool against human genes, 40 nM
- Time to read-out: 96 h from transfection to read-out
- Treatment: vemurafenib 300 nM (about IC25), added 48 h after transfection, for 48 h; comparison arm got DMSO vehicle only
- Read-out: 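Ratios to non-targeting siRNA for cell gain, counted as DAPI nuclei after minus before drug and averaged over two replicates, and for absorbance-read medium lactate per cell; both binned into fold-change classes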
- Scale: cell gain with vemurafenib: higher = more cell gain than with non-targeting siRNA; lactate per cell with vemurafenib: higher = more lactate made per cell
- Call rule: 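a knock-down counts as enhancing when its fold-change classes with vehicle and with vemurafenib, taken together, show a stronger drug effect on cell gain or lactate per cell; exact class pairs not stated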
- Calls: active = enhances vemurafenib effect; inactive = no enhancement seen

ABAT (4-aminobutyrate aminotransferase) [SID152150409] → cell gain with vemurafenib = 0.5; lactate per cell with vemurafenib = 2.12
FCGR2B (Fc gamma receptor IIb) [SID135623029] → cell gain with vemurafenib = 0.28; lactate per cell with vemurafenib = 1.09
PCDHA7 (protocadherin alpha 7) [SID134317486] → cell gain with vemurafenib = 0.39; lactate per cell with vemurafenib = 0.98
SYTL1 (synaptotagmin like 1) [SID134314980] → cell gain with vemurafenib = 1.11; lactate per cell with vemurafenib = 0.48
NUDT12 (nudix hydrolase 12) [SID134324942] → cell gain with vemurafenib = 0.53; lactate per cell with vemurafenib = 1.07
MED26 (mediator complex subunit 26) [SID135622229] → cell gain with vemurafenib = 0.14; lactate per cell with vemurafenib = 2.03
LDHAL6A (lactate dehydrogenase A like 6A) [SID152147866] → cell gain with vemurafenib = 0.83; lactate per cell with vemurafenib = 0.45
NFE2L3 (NFE2 like bZIP transcription factor 3) [SID134314068] → cell gain with vemurafenib = 0.48; lactate per cell with vemurafenib = 1.12
ASTE1 (asteroid structure-specific endonuclease 1) [SID134323041] → cell gain with vemurafenib = 0.96; lactate per cell with vemurafenib = 0.3

The list goes on; the last 2 above are carried over.
NFE2L3 (NFE2 like bZIP transcription factor 3) [SID134314068] → cell gain with vemurafenib = 0.48; lactate per cell with vemurafenib = 1.12
ASTE1 (asteroid structure-specific endonuclease 1) [SID134323041] → cell gain with vemurafenib = 0.96; lactate per cell with vemurafenib = 0.3
WDR13 (WD repeat domain 13) [SID134324909] → cell gain with vemurafenib = 0.74; lactate per cell with vemurafenib = 1.31
PGLYRP2 (peptidoglycan recognition protein 2) [SID135621612] → cell gain with vemurafenib = 0.42; lactate per cell with vemurafenib = 1.32
CDR1 (cerebellar degeneration related 1) [SID134323555] → cell gain with vemurafenib = 0.73; lactate per cell with vemurafenib = 0.88
PRDM2 (PR/SET domain 2) [SID135621959] → cell gain with vemurafenib = 0.88; lactate per cell with vemurafenib = 1.06
RPL23AP82 (ribosomal protein L23a pseudogene 82) [SID135625044] → cell gain with vemurafenib = 0.31; lactate per cell with vemurafenib = 1.4
JAML (junction adhesion molecule like) [SID152151002] → cell gain with vemurafenib = 0.81; lactate per cell with vemurafenib = 0.67
PLIN1 (perilipin 1) [SID152152331] → cell gain with vemurafenib = 0.99; lactate per cell with vemurafenib = 0.84
